# According to PubChem BioAssay AID624297 (National Center for Advancing Translational Sciences (NCATS), 2012):
# Out of some 340,000 compounds screened, about 6,200 (1.8%) were called active. This list was built around the results that the source calls inconclusive (neither active nor inactive); the mix of calls is not that of the screen. Calls come from the whole dose curve; as a rule, active = well fitted activation curve with a large enough effect; inconclusive = small, poorly fitted or top-dose-only effect; inactive = no such curve, though single readings can be large or run the other way. Potencies beside an inconclusive call are fits to weak or partial responses and may not hold up.
# Test: A quantitative high throughput screen for small molecules that induce DNA re-replication in SW480 colon adenocarcinoma cells. For re-replication activation: % of control where 0% means no effect. Note: nearly all actives have a fitted effect of over 55% in size.
# Conditions: Hoechst DNA content imaging, 48 h; re-replication activation: at 46.1 µM (top of the series) unless noted
# Outline: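 Compounds, transferred as 23 nL by pin tool, were incubated with cells for 48 hr; DNA content per nucleus was then quantified by Hoechst staining and fluorescence plate imaging.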
# Potency is the fitted concentration of half-maximal effect.
Structure (SMILES),Potency,re-replication activation
N#Cc1cccnc1N1CCN(C(=O)c2ccc3c(c2)S(=O)(=O)c2ccccc2C3=O)CC1,"inconclusive: 7.31 µM [activator, partial curve, poor fit]",–
Cc1c(NC(=O)c2cc(-c3ccc(F)cc3)on2)c(=O)n(-c2ccccc2)n1C,–,inactive: -0.557%
O=C(CNC(=S)NC(=O)c1cccs1)c1ccccc1,"inconclusive: 9.2 µM [activator, partial curve, poor fit]",–
O=C(Cc1ccccc1)N/N=C/c1ccc[nH]1,–,inactive: -0.746%
Fc1cccc(Nc2nc(-c3ccncc3)nc3ccccc23)c1,"inconclusive: 20.6 µM [activator, single point]",–
COc1ccc(CCN2C(=O)CC(C(N)=O)SC2=Nc2ccccc2)cc1 (stereo unspecified),"inconclusive: 0.116 µM [activator, full curve, poor fit]",–
Cn1c(SCC(=O)N/N=C/C=C/c2ccco2)nc2ccccc21,–,inactive: 17.5%
Cc1ccc(/C=N/Nc2nncn2N)cc1,"inconclusive: 25.9 µM [activator, partial curve, poor fit]",–
FC(F)(F)c1ccccc1CN1CCN(C2CCCCCC2)CC1,"inconclusive: 3.66 µM [activator, single point]",–
Cn1cc(C2=C(c3ccc(Cl)cc3Cl)C(=O)NC2=O)c2ccccc21,"inconclusive: 18.4 µM [activator, single point]",–
Cc1c(CC(=O)N2CCN(C(=O)C3COc4ccccc4O3)CC2)c(=O)oc2cc(O)ccc12 (stereo unspecified),"inconclusive: 23.1 µM [activator, single point]",–
CC(C)(CNC(=O)CC1C(=O)NCCN1Cc1cccc(F)c1F)N1CCOCC1 (stereo unspecified),–,inactive: -21.4%
O=C(NCCCN1CCOCC1)c1ccc(CSc2ccc(Cl)cc2)cc1,"inconclusive: 16.4 µM [activator, partial curve, poor fit]",–
O=S(=O)(c1ccccc1)N1CCN(C(=S)NC2CCCC2)CC1,"inconclusive: 20.6 µM [activator, single point]",–
COc1ccc(-c2c(-c3cc(OC)c(OC)c(OC)c3)noc2C)cn1,active: 7.31 µM,–
Cc1cccc(/C=N/NC(=O)C(C)Nc2cccc3ccccc23)n1 (stereo unspecified),"inconclusive: 29.1 µM [activator, single point]",–
O=C(Nc1ccccc1Cl)Nc1ccnn1C1CCN(C(=O)c2cscn2)CC1,"inconclusive: 18.4 µM [activator, single point]",–
COc1cccc(C(=O)NCc2ccc3[nH]c(C)cc3c2)c1,–,inactive: -10.7%
OCCNc1nc(-c2cccnc2)nc2ccccc12,–,inactive: -4.57%
CCCNC(=S)NC1CC2CCCC(C1)N2Cc1ccc(F)cc1 (stereo unspecified),–,inactive: 4.12%
O=C(O)/C=C/C(=O)c1c(-c2ccccc2)[nH]c2ccccc12,–,inconclusive: 108% [activator]
CC(C(=O)Nc1ccc(F)c(F)c1F)N(C)Cc1cccs1 (stereo unspecified),–,inactive: -3.9%
CC1CCCN(CCCNC(=O)c2cc3c(s2)-c2ccccc2OC3)C1 (stereo unspecified),"inconclusive: 2.82 µM [activator, single point]",–
C(=N\Nc1nc2ccccc2[nH]1)/C1CCCCC1,"inconclusive: 29.1 µM [activator, single point]",–

Structure (SMILES),Potency,re-replication activation
CC(C)=CCc1c(O)cc2oc3c(CC=C(C)C)c(O)c(O)c(CC=C(C)C)c3c(=O)c2c1O,–,inactive: 13.8%
N#Cc1nc(-c2ccc(Cl)cc2)oc1NCc1ccco1,–,inactive: -5.24%
Cc1ccc(S(=O)(=O)Nc2cccc3ncccc23)s1,"inconclusive: 10.3 µM [activator, partial curve, poor fit]",–
CC(C)(C)C(=O)NC(=S)N1CCc2ccccc21,–,inconclusive: -35.7% [activator]
NC(=O)c1c(NC(=O)c2ccco2)sc2c1CCC2,"inconclusive: 29.1 µM [activator, single point]",–
O=C(O)c1ccc(CS(=O)(=O)Cc2ccccc2F)o1,"inconclusive: 29.1 µM [activator, partial curve, poor fit]",–
CN(C)C(CNC(=O)C1CCN(S(=O)(=O)c2ccc(Cl)cc2)CC1)c1ccccc1 (stereo unspecified),–,inactive: 24.7%
CCCCc1nc2cc(C(=O)N3CCNC(=O)C3)ccc2o1,"inconclusive: 29.1 µM [activator, single point]",–
O=C(Nc1ccc(F)cc1)Oc1ccccc1N1CCOCC1,"inconclusive: 6.51 µM [activator, full curve, poor fit]",–
COC(=O)CN1C(=S)N(Cc2ccccc2)C(=O)C1CC(=O)Nc1ccc(Br)cc1 (stereo unspecified),"inconclusive: 20.6 µM [activator, partial curve, poor fit]",–
Cc1ccc(NS(=O)(=O)c2ccc3c(c2)n(C)c(=O)n3C)cc1C,–,inconclusive: 61.9% [activator]
COc1ccc(-c2nc(C#N)c(NC(C)C)o2)cc1,–,inactive: 10.2%
O=C(c1cc(N2C(=O)C3C4CCC(C4)C3C2=O)ccc1Cl)N1CCN(c2ccccc2F)CC1 (stereo unspecified),"inconclusive: 7.31 µM [activator, partial curve, poor fit]",–
Nc1c(C(=O)OCC2CCCO2)c2nc3ccccc3nc2n1C1CCCCC1 (stereo unspecified),"inconclusive: 18.4 µM [activator, single point]",–
O/N=C1\CCc2cc(Cl)ccc21,–,inactive: -2.11%
CC(=O)NC(c1ccc(C(C)C)cc1)c1c(O)ccc2ccccc12 (stereo unspecified),"inconclusive: 20.6 µM [activator, single point]",–
CSc1nnc(-c2nnc(SC)n2-c2ccccc2)n1-c1ccccc1,"inconclusive: 2.91 µM [activator, single point]",–
COc1cc(/C=C2/SC(=S)N(CC(=O)Nc3nc4ccccc4s3)C2=O)cc(OC)c1OC,"inconclusive: 6.51 µM [activator, single point]",–
O=C1c2ccccc2C(O)(Cc2ccccc2)N1Cc1ccco1 (stereo unspecified),"inconclusive: 29.1 µM [activator, single point]",–
N#Cc1c(-c2ccccc2)nc(SCC(=O)Nc2ccc(OC(F)(F)Cl)cc2)[nH]c1=O,–,inactive: -11.9%
CN(C)CCNC(=O)COc1ccc(C23CC4CC(CC(C4)C2)C3)cc1,"inconclusive: 29.1 µM [activator, single point]",–
COc1cc2c(cc1NC(=O)CN(C)Cc1ccc(OC)c(OC)c1)oc1ccccc12,active: 18.4 µM,–
Fc1cccc(Nc2c3c(nc4ccccc24)CCC3)c1,–,inactive: -1.11%
CN(C)CC(O)COc1ccc(C(C)(C)c2ccc(OCC(O)CN(C)C)cc2)cc1 (stereo unspecified),"inconclusive: 25.1 µM [activator, single point]",–

Structure (SMILES),Potency,re-replication activation
Cc1ccc(CNC(=O)C(=O)NCC2OCCN2C(=O)c2ccc(Cl)cc2)cc1 (stereo unspecified),"inconclusive: 23.1 µM [activator, single point]",–
Cc1occc1C(=O)Nc1ccc([N+](=O)[O-])cc1Br,"inconclusive: 0.0651 µM [activator, full curve, poor fit]",–
Cc1c(Cl)cccc1NC(=O)CSc1ncnc2c1cnn2CCO,"inconclusive: 0.651 µM [activator, partial curve, poor fit]",–
CN(C)C(=O)NC(Nc1cccc([N+](=O)[O-])c1)C(Cl)(Cl)Cl (stereo unspecified),–,inactive: -13.3%
Cc1ccc(S(=O)(=O)N2[C@@H](c3ccc(F)cc3)C(C(=O)O)=C[C@H]2CC2CCCC2)cc1,"inconclusive: 0.82 µM [activator, single point]",–
CCCn1c2ccccc2c2nnc(SCc3[nH]c(=O)[nH]c3C(=O)CCCCC(=O)OCC)nc21,"inconclusive: 0.291 µM [activator, full curve, poor fit]",–
C=CCNC(=O)c1cc(-c2ccc3c(c2)OCO3)on1,"inconclusive: 14.6 µM [activator, partial curve]",–
Cc1ccccc1/C=N/Nc1ccnc2cc(Cl)ccc12,"inconclusive: 23.1 µM [activator, single point]",–
O=C(Nc1cccc(S(=O)(=O)C(F)F)c1)c1ccc(S(=O)(=O)N2CCCC2)cc1,"inconclusive: 4.61 µM [activator, full curve, poor fit]",–
O=C(NNC(=O)C1CC=CCC1)c1ccccc1O (stereo unspecified),"inconclusive: 18.4 µM [activator, partial curve, poor fit]",–
C(=N\NC(=Nc1ccccc1)c1ccccn1)/c1ccccn1,"inconclusive: 29.1 µM [activator, single point]",–
CCCCC/C(=N\NC(=O)Nc1ccccc1)c1ccccc1,"inconclusive: 0.517 µM [activator, partial curve, poor fit]",–
CCN(CC)CCN(C(=O)c1ccc2c(c1)CCCC2)c1nc2ccc(F)cc2s1,–,inactive: -6.62%
Cc1cc(Nc2nnnn2-c2ccccc2)n(-c2ccccc2)n1,–,inactive: -1.11%
CC12CC(NC(=O)N1c1cccc(C(=O)NCc3ccc4c(c3)OCO4)c1)c1cc(Cl)ccc1O2 (stereo unspecified),"inconclusive: 23.1 µM [activator, single point]",–
CCOC(=O)c1sc(NC(=O)c2cc(-c3ccccc3)nc3ccccc23)c(C#N)c1C,–,inactive: 0.129%
COc1ccc2[nH]c(=O)c(CN(c3ccccc3)S(=O)(=O)c3ccccc3)cc2c1,"inconclusive: 29.1 µM [activator, single point]",–
COC(=O)c1cc(CSC(=N)N)ccc1OCCC(C)C,–,inactive: 225%
Cc1ccc(S(=O)(=O)N2CCCC2)s1,–,inactive: -8.41%
O=C(O)c1cccc(NC(=S)NC(=O)c2ccc(-c3ccccc3)cc2)c1,–,inactive: -5.82%
Cc1c(C(=O)N2CCCC2)oc2c1-c1nn(CC(=O)NCCCOC(C)C)cc1CC2,–,inactive: -20.1%
CCOC(=O)/C(=C\c1cccnc1)C(=O)c1cc(C(C)=O)c(Nc2ccccc2)s1,active: 3.66 µM,–
Cc1ccccc1CN1C(=O)/C(=C\c2ccc(C(=O)NCCN3CCOCC3)cc2)Sc2ccccc21,"inconclusive: 29.1 µM [activator, single point]",–

# As entered above.
# Value for Cc1ccc(S(=O)(=O)N2[C@@H](c3ccc(F)cc3)C(C(=O)O)=C[C@H]2CC2CCCC2)cc1 under Potency: inconclusive: 0.82 µM [activator, single point]
# Value for CCOC(=O)c1sc(NC(=O)c2cc(-c3ccccc3)nc3ccccc23)c(C#N)c1C under re-replication activation: inactive: 0.129%
# Value for CCCCC/C(=N\NC(=O)Nc1ccccc1)c1ccccc1 under Potency: inconclusive: 0.517 µM [activator, partial curve, poor fit]
# Value for Cc1occc1C(=O)Nc1ccc([N+](=O)[O-])cc1Br under Potency: inconclusive: 0.0651 µM [activator, full curve, poor fit]
# Value for C=CCNC(=O)c1cc(-c2ccc3c(c2)OCO3)on1 under Potency: inconclusive: 14.6 µM [activator, partial curve]
# Value for Cc1ccc(S(=O)(=O)N2CCCC2)s1 under re-replication activation: inactive: -8.41%
